For part of these data: Negatives hold for the conditions tested. At least one verdict was read from the data and is not stated in words by the source. Protein sequences can lack the tags named with them. The comparison behind a weaker result is the experiment's own reference, which may not be listed here. The exact form of at least one protein or probe is not confirmed.
What was measured:
Assay in all cases: EMSA
[1] = target: T1, ECT2-108 (Arabidopsis thaliana) (UniProt Q9LJE5); conditions: EMSA: 10 nM FAM-RNA, binding buffer 10 mM HEPES pH 8.0, 50 mM KCl, 1 mM EDTA, 0.05% Triton X-100, 5% glycerol, 10 µg/mL salmon DNA, 1 mM DTT, 40 U/mL RNasin, recombinant protein, residues 108-667, protein details: N-terminal His-SUMO, label: 5' FAM
T1 sequence (looked up): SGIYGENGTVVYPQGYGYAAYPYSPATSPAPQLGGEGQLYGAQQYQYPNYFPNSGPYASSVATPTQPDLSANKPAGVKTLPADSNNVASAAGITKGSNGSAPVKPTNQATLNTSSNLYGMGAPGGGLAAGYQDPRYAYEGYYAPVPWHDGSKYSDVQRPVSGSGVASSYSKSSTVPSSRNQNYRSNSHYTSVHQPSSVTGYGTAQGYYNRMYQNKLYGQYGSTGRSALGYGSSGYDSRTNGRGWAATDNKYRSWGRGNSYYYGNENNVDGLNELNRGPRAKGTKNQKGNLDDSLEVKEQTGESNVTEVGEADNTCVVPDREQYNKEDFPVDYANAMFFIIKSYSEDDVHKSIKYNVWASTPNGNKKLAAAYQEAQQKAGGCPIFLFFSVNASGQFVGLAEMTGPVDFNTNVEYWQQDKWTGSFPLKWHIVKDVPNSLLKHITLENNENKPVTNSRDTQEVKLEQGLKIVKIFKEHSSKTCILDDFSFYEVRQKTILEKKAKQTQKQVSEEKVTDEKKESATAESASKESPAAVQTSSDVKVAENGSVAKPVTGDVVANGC

[2] = target: T2, ECT2-303 (Arabidopsis thaliana) (UniProt Q9LJE5); conditions: no gel-stable complex, free probe decreases; m6A at position 6; thiol-protected 3' bases (*C*U); EMSA: 10 nM FAM-RNA; binding buffer 10 mM HEPES pH 8.0, 50 mM KCl, 1 mM EDTA, 0.05% Triton X-100, 5% glycerol, 10 µg/mL salmon DNA, 1 mM DTT, 40 U/mL RNasin; recombinant protein; residues 303-667; protein details: N-terminal His-SUMO; label: 5' FAM
T2 sequence (looked up): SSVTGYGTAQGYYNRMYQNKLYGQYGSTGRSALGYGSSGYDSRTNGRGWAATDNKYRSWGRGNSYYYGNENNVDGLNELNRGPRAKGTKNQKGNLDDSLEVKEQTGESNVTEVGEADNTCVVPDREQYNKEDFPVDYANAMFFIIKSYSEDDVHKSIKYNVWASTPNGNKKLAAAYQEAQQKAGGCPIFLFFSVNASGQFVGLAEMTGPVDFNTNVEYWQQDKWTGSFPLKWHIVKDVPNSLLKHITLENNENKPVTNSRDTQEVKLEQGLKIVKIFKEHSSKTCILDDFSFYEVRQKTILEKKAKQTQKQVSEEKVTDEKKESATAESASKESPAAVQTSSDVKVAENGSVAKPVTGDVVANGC

[3] = target: T3, ECT2-376 (Arabidopsis thaliana) (UniProt Q9LJE5); conditions: no gel-stable complex, free probe decreases, EMSA: 10 nM FAM-RNA, binding buffer 10 mM HEPES pH 8.0, 50 mM KCl, 1 mM EDTA, 0.05% Triton X-100, 5% glycerol, 10 µg/mL salmon DNA, 1 mM DTT, 40 U/mL RNasin, recombinant protein, residues 376-667, protein details: N-terminal His-SUMO, label: 5' FAM
T3 sequence (looked up): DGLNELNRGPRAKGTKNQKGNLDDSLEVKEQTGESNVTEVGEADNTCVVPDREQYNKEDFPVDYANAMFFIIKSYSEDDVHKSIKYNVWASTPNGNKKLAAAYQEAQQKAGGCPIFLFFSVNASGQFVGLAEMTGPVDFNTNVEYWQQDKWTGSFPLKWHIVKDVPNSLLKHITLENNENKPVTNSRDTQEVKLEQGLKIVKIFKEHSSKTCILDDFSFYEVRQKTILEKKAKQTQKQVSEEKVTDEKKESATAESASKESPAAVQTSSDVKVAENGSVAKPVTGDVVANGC

[4] = target: T4, ECT2-424 (His-SUMO) (Arabidopsis thaliana) (UniProt Q9LJE5); conditions: no gel-stable complex, EMSA: 10 nM FAM-RNA, binding buffer 10 mM HEPES pH 8.0, 50 mM KCl, 1 mM EDTA, 0.05% Triton X-100, 5% glycerol, 10 µg/mL salmon DNA, 1 mM DTT, 40 U/mL RNasin, recombinant protein, residues 424-610, protein details: N-terminal His-SUMO, label: 5' FAM
T4 sequence (looked up): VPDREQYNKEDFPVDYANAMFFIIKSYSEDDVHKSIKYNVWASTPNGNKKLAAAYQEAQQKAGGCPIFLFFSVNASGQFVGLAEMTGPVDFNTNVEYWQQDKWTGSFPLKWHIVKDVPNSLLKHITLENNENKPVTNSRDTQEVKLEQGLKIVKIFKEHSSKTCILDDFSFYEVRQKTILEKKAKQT

[5] = target: T5, ECT2-204 (Arabidopsis thaliana) (UniProt Q9LJE5); conditions: EMSA: 10 nM FAM-RNA, binding buffer 10 mM HEPES pH 8.0, 50 mM KCl, 1 mM EDTA, 0.05% Triton X-100, 5% glycerol, 10 µg/mL salmon DNA, 1 mM DTT, 40 U/mL RNasin, recombinant protein, residues 204-667, protein details: N-terminal His-SUMO, label: 5' FAM
T5 sequence (looked up): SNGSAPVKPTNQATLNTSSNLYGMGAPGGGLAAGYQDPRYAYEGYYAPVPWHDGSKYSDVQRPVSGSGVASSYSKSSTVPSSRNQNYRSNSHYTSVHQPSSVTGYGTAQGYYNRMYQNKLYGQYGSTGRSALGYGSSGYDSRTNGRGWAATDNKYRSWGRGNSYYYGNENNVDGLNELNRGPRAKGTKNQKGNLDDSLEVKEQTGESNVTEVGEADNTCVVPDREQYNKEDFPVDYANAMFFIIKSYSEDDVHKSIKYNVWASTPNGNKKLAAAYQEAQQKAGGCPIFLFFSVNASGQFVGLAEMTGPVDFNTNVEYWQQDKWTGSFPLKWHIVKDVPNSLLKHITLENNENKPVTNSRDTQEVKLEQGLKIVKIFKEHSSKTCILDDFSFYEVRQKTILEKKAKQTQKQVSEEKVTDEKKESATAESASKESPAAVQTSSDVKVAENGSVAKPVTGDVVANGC

[6] = no gel-stable complex, free probe decreases, m6A at position 6, thiol-protected 3' bases (*C*U)
[7] = up to 500 nM, thiol-protected 3' bases (*G*U)
[8] = smear, m6A at position 25, thiol-protected 3' bases (*G*U)
[9] = stable complex, low affinity, thiol-protected 3' bases (*G*A)

Sequence: AAAGGACUGCU [Probe II m6A]
- binding result [1, 6]: binds more weakly
- binding result [2]: binds more weakly
- binding result ([3]; m6A at position 6, thiol-protected 3' bases (*C*U)): binds more weakly
- binding result ([4]; free probe decreases, m6A at position 6, thiol-protected 3' bases (*C*U)): binds more weakly
- binding result [5, 6]: binds more weakly

Sequence: AUGUGUCUUUCAUGUACUAAAAGGACUGCUCUUGUGUCUUGU [Probe IV (A)]
- binding result [1, 7]: no binding
- binding result [5, 7]: no binding

Sequence: AUGGGCCGUUCAUCUGCUAAAAGGACUGCUUUUGGGGCUUGU [Probe I m6A]
- binding result [3, 8]: binds more weakly
- binding result [4, 8]: binds more weakly

Sequence: AUGGGCCGUUCAUCUGCUAAAAGGACUGCUUUUGGGGCUUGU [Probe I (A)]
- binding result [5, 7]: no binding

Sequence: AAGGGCCGAACAACAGCAAAAAGGACUGCAAAAGGGGCAAGA [Probe III (A)]
- binding result [1, 9]: binds more weakly
- binding result [5, 9]: binds more weakly

Source: article PMC11404569
